Results from patent US12590130B2, “Bipartite molecules and uses thereof in treating diseases associated with abnormal protein aggregates” (ACADEMIA SINICA, priority 2014, dated 2026).
At least one peptide structure holds a part that was inferred or is arguable (an end, a ring closure or a residue). Square brackets hold non-standard residues; d marks the D form. Ends that are not written are not given here. Peptide text beside a SMILES is read from it.

What was measured:
[1] = Structural studies on V24P peptides (CD, ThT binding, TEM); assay type: physicochemical; conditions: for structure by CD spectra: 30, 60 and 90 μM, immediately after dissolution
APP×PS1 transgenic mice [2] = assay: ELISA for insoluble Aβ40 and Aβ42 in brain of APP×PS1 mice; assay type: in vivo, mouse; conditions: cortex or hippocampus, 12 months of age, vs PEI
APP×PS1 transgenic mice [3] = assay: Morris water maze in APP×PS1 transgenic mice; assay type: in vivo, mouse; conditions: vs PEI
From the text: FIG. 12. R8-Aβ(25-35)-PEI improved memory as measured by the Morris water maze assay. Panel A: Plot of the escape latency period of wild type (WT) and APP×PS1 transgenic (Tg) mice of 8 months of age treated with either PEI or R8-Aβ(25-35) peptide from the age of 4 months to 8 months. […] Panel B: Percentage of time of WT or Tg mice treated as indicated spent in swimming in the target quadrant where the hidden platform used to be. The times of the indicated mice crossing the target quadrant. […] Panel C: The percentage of time of the WT or Tg mice as indicated crossing the target quadrant. Ten mice per group were used in this study. The statistics were performed with two way ANOVA with Fisher's LSD posthoc analysis. N=10/group *<0.05; ***<0.0005; ****<0.0001 […]
The maze was made of white opaque plastic with a diameter of 120 cm and contained 40 cm high walls. […] The path length and escape latencies were recorded (n=10 per group). Acquisition data, such as time taken to reach the escape platform and path length were analyzed by two-way repeated measures ANOVA. […] The platform was removed from the maze and animals were allowed to swim freely for 90 s and the swimming path was recorded and analyzed.

[4] = Conformational study of bipartite peptides by CD and TEM; assay type: physicochemical
APP×PS1 transgenic mice [5] = assay: [11C]PIB microPET amyloid imaging of APP×PS1 mice; assay type: in vivo, mouse; conditions: 12 months of age
APP×PS1 transgenic mice [6] = assay: ELISA for total Aβ40 and Aβ42 in brain of APP×PS1 mice; assay type: in vivo, mouse; conditions: vs PEI

Molecule	structure by CD spectra [1]	ThT binding fluorescence ([1]; any concentration (30, 60, 90 μM))	ThT binding fluorescence ([1]; 90 μM peptide)	decrease in insoluble Aβ40 (APP×PS1 transgenic mice [2])	decrease in insoluble Aβ42 (APP×PS1 transgenic mice [2])	escape latency / learning to find hidden platform (APP×PS1 transgenic mice [3]; Tg mice 8 months of age, intranasal)	crossings of the target quadrant (probe test) (APP×PS1 transgenic mice [3]; Tg mice)	structure by CD spectra ([4]; 30 μM peptide alone, pH 7, 25° C.)	aggregate morphology by TEM ([4]; peptide alone, prolonged incubation)	microPET reduction (APP×PS1 transgenic mice [5])	PiB microPET signal (APP×PS1 transgenic mice [5]; cortex, hippocampus, amygdala and olfactory bulb, vs PEI)	decrease in level of Aβ40 in cortex (APP×PS1 transgenic mice [6]; 8 months of age) [%]	decrease in level of Aβ40 in hippocampus (APP×PS1 transgenic mice [6]; 8 months of age) [%]	decrease in level of Aβ42 in cortex (APP×PS1 transgenic mice [6]; 8 months of age) [%]	decrease in level of Aβ42 in hippocampus (APP×PS1 transgenic mice [6]; 8 months of age) [%]	decrease in total Aβ40 in cortex (APP×PS1 transgenic mice [6]; 12 months of age) [%]	decrease in total Aβ40 in hippocampus (APP×PS1 transgenic mice [6]; 12 months of age) [%]	level of total Aβ42 (APP×PS1 transgenic mice [6]; 12 months of age)
C[C@H](NC(=O)CNC(=O)[C@H](CCCCN)NC(=O)[C@H](CC(N)=O)NC(=O)[C@H](CO)NC(=O)CNC(=O)[C@H]1CCCN1C(=O)[C@H](CC(=O)O)NC(=O)[C@H](CCC(=O)O)NC(=O)[C@H](C)NC(=O)[C@H](Cc1ccccc1)NC(=O)[C@@H](N)Cc1ccccc1)C(=O)O [V24P(19-30), FF AED^DPGSNKGA] (H-FFAED[dP]GSNKGA-OH; N-terminus and C-terminus assumed)	random coil structure	No fluorescence emission at 487 nm was observed																
CC[C@H](C)[C@H](NC(=O)[C@H](C)NC(=O)CNC(=O)[C@H](CCCCN)NC(=O)[C@H](CC(N)=O)NC(=O)[C@H](CO)NC(=O)CNC(=O)[C@H]1CCCN1C(=O)[C@H](CC(=O)O)NC(=O)[C@H](CCC(=O)O)NC(=O)[C@H](C)NC(=O)[C@H](Cc1ccccc1)NC(=O)[C@H](Cc1ccccc1)NC(=O)[C@@H](NC(=O)[C@H](CC(C)C)NC(=O)[C@@H](N)CCCCN)C(C)C)C(=O)N[C@H](C(=O)NCC(=O)O)[C@@H](C)CC [V24P(16-33), KLVFF AED^DPGSNKGA IIG] (H-KLVFFAED[dP]GSNKGAIIG-OH; N-terminus and C-terminus assumed)	type I β-turn		only a small amount of β-aggregates formed															
RRRRRRRRGSNKGAIIGLM-NH2 [R8-Aβ(25-35)]				25˜30%	25˜30%	significantly faster learning	more crossings	random coil structure	amorphous aggregates	17˜35%	much lower signal	86	73	30	60	16	21	No statistical difference
